The list shows a part of the results, in another mix than the full data. Most values lie at the level of the controls, where differences are scatter.
These targets were tested with Nc1ncnc2c1ncn2[C@@H]1O[C@H](COP(=O)(O)OP(=O)(O)OP(=O)(O)O)[C@@H](O)[C@H]1O [adenosine 5'-triphosphate] (assay: log2 fold change of tryptic peptide abundance, ligand vs vehicle (limited proteolysis) (log2 ratio); higher = more trypsin-susceptible (destabilized)). Settings: ligand concentration: 5 mM; sample: E. coli desalted lysate; replicate design: treated before aliquoting.
Method: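 HT-PELSA: desalted E. coli K-12 BW25113 lysate (with 12 mM MgCl2) incubated with 5 mM ATP (pH 7) or water for 30 min at 25 C, then a 4 min trypsin pulse at 22 C. Peptides were quantified by DIA-MS (4 replicates). Value is the peptide log2 fold change (treated/control); negative = stabilized. Scale: negative = ligand-stabilized region.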
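Also: lysate desalted by size exclusion to strip endogenous ATP, peptide intensities built from DIA-NN precursor signals, and peptides missing any value discarded before comparison.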

Protein sequences, listed by entry. Tags and fused reporters are not part of them. Lines headed by an entry give the natural chain unless they say otherwise; changes in a name come on top.
UniProt P52097: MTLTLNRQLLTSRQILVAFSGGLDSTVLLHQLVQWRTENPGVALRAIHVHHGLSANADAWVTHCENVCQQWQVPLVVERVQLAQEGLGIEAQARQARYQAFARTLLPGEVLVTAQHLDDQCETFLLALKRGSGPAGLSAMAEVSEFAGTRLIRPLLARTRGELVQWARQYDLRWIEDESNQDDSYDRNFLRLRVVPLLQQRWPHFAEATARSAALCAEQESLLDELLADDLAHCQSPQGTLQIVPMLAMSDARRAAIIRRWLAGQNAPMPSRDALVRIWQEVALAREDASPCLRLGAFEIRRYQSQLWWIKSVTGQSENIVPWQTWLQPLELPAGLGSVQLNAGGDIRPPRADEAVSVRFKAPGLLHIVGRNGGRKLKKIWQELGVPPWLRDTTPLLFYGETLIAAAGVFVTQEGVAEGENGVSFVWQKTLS
UniProt P46854: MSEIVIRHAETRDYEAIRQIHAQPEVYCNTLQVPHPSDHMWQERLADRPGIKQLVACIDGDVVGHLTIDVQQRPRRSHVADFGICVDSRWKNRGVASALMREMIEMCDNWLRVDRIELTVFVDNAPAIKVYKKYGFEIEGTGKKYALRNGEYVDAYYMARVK
UniProt P45758: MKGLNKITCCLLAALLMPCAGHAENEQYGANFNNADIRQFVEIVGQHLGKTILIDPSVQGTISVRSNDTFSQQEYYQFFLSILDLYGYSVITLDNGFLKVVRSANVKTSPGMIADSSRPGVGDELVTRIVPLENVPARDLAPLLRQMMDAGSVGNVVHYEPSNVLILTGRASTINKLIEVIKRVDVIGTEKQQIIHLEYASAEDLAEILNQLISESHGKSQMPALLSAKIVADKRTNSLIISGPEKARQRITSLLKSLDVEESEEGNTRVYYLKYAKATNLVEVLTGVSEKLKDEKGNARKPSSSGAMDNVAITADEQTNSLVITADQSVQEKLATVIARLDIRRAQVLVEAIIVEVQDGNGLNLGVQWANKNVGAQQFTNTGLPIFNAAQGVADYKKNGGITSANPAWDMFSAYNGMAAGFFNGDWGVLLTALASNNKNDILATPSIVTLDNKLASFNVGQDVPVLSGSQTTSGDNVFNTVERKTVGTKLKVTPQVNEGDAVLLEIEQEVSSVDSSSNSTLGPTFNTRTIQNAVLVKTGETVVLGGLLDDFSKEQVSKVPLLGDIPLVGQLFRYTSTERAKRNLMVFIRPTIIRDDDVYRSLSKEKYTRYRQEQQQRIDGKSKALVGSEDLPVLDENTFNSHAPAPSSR
UniProt P46139: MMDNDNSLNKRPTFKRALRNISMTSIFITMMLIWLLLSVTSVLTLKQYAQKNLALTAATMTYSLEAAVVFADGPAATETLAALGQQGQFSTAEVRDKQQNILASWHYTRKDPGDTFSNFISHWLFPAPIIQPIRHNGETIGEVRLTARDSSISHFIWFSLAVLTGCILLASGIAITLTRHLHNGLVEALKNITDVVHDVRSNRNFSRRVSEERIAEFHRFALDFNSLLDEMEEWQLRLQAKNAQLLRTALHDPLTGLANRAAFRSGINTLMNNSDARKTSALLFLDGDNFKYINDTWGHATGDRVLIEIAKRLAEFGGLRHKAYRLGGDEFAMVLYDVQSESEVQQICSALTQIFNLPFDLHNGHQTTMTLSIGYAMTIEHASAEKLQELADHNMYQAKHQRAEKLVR
UniProt P45807: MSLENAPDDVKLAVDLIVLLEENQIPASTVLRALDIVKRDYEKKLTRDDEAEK
UniProt P39377: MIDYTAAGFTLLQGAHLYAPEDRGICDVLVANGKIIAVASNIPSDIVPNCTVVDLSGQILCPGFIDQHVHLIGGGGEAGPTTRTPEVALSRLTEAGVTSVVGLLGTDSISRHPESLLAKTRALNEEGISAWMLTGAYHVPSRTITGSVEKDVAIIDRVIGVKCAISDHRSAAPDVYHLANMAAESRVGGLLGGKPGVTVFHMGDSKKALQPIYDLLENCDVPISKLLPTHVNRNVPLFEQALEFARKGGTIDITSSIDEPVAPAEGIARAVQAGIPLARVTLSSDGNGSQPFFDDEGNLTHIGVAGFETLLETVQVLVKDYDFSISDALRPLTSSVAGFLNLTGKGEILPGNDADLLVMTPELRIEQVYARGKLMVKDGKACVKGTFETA
UniProt P46187: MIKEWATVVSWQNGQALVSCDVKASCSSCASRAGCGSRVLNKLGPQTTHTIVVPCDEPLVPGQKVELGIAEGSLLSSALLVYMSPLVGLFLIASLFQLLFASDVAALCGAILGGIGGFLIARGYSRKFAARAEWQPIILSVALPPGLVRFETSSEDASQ
UniProt P39451: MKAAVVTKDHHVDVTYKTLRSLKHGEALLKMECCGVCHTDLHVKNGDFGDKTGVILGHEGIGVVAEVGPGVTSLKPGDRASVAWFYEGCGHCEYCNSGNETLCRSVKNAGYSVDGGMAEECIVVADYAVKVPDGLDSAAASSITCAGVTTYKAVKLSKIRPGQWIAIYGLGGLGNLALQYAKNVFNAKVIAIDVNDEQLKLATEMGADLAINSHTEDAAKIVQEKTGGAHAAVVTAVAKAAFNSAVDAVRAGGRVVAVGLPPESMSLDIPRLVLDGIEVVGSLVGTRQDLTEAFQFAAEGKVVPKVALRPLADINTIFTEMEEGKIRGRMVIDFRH
UniProt P45394: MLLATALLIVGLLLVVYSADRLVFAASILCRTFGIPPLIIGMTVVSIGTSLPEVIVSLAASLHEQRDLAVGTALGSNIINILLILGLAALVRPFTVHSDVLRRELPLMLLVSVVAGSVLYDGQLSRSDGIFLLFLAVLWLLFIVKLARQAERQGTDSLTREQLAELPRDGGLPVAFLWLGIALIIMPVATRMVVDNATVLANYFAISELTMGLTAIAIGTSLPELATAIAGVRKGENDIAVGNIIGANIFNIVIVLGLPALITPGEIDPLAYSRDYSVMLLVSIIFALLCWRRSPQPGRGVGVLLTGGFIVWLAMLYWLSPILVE
UniProt P45469: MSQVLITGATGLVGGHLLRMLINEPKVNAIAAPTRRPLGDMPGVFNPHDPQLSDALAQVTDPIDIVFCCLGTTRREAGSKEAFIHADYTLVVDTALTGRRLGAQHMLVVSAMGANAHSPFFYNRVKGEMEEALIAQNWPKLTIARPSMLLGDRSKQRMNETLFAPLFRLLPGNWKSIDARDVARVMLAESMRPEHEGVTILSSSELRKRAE
UniProt P39384: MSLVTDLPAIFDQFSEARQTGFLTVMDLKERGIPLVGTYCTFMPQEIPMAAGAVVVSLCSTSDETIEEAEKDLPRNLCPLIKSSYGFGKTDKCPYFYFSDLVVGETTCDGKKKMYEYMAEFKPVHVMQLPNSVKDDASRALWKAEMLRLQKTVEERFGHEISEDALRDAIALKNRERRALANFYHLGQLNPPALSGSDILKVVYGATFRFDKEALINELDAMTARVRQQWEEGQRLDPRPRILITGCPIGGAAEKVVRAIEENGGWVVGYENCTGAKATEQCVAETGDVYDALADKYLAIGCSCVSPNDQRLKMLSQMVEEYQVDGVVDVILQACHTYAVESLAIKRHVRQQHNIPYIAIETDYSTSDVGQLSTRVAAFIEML
UniProt P43671: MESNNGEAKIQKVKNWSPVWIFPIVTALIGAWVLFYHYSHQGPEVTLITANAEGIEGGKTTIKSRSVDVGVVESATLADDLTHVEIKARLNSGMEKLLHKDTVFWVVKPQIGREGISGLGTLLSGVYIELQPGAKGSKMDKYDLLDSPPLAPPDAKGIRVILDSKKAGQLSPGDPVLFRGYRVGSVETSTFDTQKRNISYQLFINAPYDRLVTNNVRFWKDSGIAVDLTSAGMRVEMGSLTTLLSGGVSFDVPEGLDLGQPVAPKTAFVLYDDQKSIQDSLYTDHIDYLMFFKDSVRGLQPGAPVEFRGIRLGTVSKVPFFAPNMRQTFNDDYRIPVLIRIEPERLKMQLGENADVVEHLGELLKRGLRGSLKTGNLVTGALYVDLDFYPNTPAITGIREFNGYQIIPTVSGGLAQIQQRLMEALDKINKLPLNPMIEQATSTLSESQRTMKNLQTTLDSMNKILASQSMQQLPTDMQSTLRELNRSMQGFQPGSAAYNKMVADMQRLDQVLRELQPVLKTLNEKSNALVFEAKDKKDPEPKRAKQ
UniProt P39389: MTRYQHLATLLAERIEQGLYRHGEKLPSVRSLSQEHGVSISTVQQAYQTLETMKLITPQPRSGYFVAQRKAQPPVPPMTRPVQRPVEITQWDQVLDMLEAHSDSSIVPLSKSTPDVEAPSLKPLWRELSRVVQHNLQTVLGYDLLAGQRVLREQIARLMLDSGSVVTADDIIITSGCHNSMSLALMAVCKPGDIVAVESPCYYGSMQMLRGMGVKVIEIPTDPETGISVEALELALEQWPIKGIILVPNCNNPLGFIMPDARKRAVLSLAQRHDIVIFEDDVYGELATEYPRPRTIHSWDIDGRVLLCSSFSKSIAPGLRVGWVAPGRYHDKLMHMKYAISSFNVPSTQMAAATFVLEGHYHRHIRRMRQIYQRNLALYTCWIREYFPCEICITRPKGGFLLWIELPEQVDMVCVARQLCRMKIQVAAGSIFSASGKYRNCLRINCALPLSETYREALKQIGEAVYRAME
UniProt P58035: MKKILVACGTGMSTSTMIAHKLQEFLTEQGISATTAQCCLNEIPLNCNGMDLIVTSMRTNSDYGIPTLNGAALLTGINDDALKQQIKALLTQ
UniProt P52132: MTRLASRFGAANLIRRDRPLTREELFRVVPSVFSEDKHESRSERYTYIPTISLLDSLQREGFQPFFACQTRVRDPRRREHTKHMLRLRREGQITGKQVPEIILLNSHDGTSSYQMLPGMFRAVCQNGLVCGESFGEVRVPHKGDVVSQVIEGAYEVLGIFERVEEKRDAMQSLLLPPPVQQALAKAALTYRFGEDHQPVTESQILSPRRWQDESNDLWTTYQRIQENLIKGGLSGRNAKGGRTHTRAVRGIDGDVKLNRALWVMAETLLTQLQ
UniProt P66948: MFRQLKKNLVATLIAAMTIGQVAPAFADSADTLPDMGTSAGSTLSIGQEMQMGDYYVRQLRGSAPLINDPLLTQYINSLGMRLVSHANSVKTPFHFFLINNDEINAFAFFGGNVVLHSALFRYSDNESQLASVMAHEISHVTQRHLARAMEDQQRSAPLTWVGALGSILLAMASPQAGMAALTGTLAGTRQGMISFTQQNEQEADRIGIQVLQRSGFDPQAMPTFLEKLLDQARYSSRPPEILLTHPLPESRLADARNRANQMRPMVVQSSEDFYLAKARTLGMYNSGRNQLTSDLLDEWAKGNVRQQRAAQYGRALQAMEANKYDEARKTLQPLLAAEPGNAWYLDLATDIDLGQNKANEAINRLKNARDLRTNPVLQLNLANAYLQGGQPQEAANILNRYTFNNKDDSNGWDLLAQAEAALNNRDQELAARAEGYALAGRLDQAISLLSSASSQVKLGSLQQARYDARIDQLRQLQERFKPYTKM
UniProt P52076: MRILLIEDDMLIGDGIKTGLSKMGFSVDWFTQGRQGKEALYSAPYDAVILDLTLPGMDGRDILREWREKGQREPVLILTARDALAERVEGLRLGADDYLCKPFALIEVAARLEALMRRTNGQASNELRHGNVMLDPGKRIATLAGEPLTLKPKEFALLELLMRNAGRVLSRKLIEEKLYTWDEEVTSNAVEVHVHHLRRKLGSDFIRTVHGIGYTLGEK
UniProt P52037: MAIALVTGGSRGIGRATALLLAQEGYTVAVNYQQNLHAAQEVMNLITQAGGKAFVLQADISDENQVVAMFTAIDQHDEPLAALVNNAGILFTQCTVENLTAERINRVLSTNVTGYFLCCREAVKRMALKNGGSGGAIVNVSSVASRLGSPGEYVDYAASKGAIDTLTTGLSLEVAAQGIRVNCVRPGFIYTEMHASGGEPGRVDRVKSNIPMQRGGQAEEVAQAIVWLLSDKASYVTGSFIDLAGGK
UniProt P52045: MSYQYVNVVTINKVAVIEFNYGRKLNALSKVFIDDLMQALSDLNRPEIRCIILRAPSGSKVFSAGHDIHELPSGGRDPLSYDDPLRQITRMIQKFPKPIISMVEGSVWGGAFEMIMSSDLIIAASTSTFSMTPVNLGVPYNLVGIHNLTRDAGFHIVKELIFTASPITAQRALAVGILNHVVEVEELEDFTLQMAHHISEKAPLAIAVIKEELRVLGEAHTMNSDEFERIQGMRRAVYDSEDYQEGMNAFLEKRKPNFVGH
UniProt P55138: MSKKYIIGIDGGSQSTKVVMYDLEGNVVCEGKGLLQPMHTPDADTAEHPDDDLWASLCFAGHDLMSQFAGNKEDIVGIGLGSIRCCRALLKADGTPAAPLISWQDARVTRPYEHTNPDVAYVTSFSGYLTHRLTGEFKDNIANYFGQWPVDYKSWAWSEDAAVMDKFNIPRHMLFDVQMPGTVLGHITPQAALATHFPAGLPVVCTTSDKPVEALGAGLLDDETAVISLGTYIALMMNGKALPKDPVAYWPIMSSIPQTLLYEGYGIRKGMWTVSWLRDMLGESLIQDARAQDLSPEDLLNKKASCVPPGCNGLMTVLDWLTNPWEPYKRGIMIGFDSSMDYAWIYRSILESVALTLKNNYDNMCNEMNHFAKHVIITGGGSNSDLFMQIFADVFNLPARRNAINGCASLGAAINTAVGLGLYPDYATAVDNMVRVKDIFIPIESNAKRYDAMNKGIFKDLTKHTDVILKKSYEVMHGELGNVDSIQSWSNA

| Target | log2 fold change |
| --- | --- |
| UniProt P43674 (peptide sequence: AATLSDADAK, peptide start residue: 41) | 0.166 |
| UniProt P52044 (peptide sequence: LSAIDNEIHNSGRR, peptide start residue: 78) | -0.337 |
| UniProt P52097 (peptide sequence: WLAGQNAPMPSR, peptide start residue: 261) | 0.689 |
| UniProt P46854 (peptide sequence: KYGFEIEGTGKK, peptide start residue: 133) | 0.398 |
| UniProt P45551 (peptide sequence: SEQGTMAMTHMASALMR, peptide start residue: 39) | 0.394 |
| UniProt P45758 (peptide sequence: YTSTERAK, peptide start residue: 575) | 0.146 |
| UniProt P45756 (peptide sequence: ILDDLQR, peptide start residue: 114) | 0.329 |
| UniProt P54901 (peptide sequence: RWAESCLEFQVAQEIGRHWQR, peptide start residue: 177) | 0.895 |
| UniProt P46139 (peptide sequence: YINDTWGHATGDR, peptide start residue: 292) | -0.39 |
| UniProt P45807 (peptide sequence: LTRDDEAEK, peptide start residue: 45) | -0.0801 |
| UniProt P45470 (peptide sequence: GEASVTIDK, peptide start residue: 48) | -0.321 |
| UniProt P39377 (peptide sequence: AVQAGIPLAR, peptide start residue: 270) | -0.498 |
| UniProt P46187 (peptide sequence: ASCSSCASR, peptide start residue: 24) | -0.534 |
| UniProt P52627 (peptide sequence: KYQHYQR, peptide start residue: 158) | -1.41 |
| UniProt P39451 (peptide sequence: DHHVDVTYK, peptide start residue: 9) | -0.453 |
| UniProt P45771 (peptide sequence: SSADGHIVK, peptide start residue: 49) | 0.287 |
| UniProt P39337 (peptide sequence: LTLQDNPAIAR, peptide start residue: 14) | 0.226 |
| UniProt P45769 (peptide sequence: CINHLEEHQQGR, peptide start residue: 57) | -0.177 |
| UniProt P45545 (peptide sequence: SAVIANAQSK, peptide start residue: 270) | 0.0612 |
| UniProt P52106 (peptide sequence: IGASNNEIAR, peptide start residue: 169) | -0.51 |

Reprinted at random: two records from the list

| Target | log2 fold change |
| --- | --- |
| UniProt P45545 (peptide sequence: SAVIANAQSK, peptide start residue: 270) | 0.0612 |
| UniProt P45551 (peptide sequence: SEQGTMAMTHMASALMR, peptide start residue: 39) | 0.394 |

The list goes on.

| Target | log2 fold change |
| --- | --- |
| UniProt P52126 (peptide sequence: SGDIDHQDER, peptide start residue: 220) | -0.551 |
| UniProt P45394 (peptide sequence: QGTDSLTR, peptide start residue: 153) | 0.163 |
| UniProt P45469 (peptide sequence: VNAIAAPTR, peptide start residue: 27) | -0.364 |
| UniProt P42604 (peptide sequence: IATNSELAAK, peptide start residue: 429) | 0.496 |
| UniProt P39384 (peptide sequence: QQWEEGQR, peptide start residue: 228) | -0.187 |
| UniProt P43671 (peptide sequence: SNALVFEAK, peptide start residue: 526) | 0.075 |
| UniProt P39389 (peptide sequence: VLLCSSFSK, peptide start residue: 305) | -0.201 |
| UniProt P58035 (peptide sequence: ILVACGTGMSTSTMIAHK, peptide start residue: 4) | -0.218 |
| UniProt P45552 (peptide sequence: AVVDKHALLAHQQR, peptide start residue: 278) | -0.221 |
| UniProt P40711 (peptide sequence: AQGAGGQHVNK, peptide start residue: 22) | -0.223 |
| UniProt P52132 (peptide sequence: FGAANLIR, peptide start residue: 8) | 0.523 |
| UniProt P39346 (peptide sequence: FAGDKTQAAK, peptide start residue: 329) | -0.339 |
| UniProt P66948 (peptide sequence: TLGMYNSGR, peptide start residue: 281) | 0.205 |
| UniProt P52076 (peptide sequence: IATLAGEPLTLKPK, peptide start residue: 140) | 0.654 |
| UniProt P52037 (peptide sequence: SNIPMQR, peptide start residue: 208) | 0.0576 |
| UniProt P39453 (peptide sequence: SNVHALNR, peptide start residue: 400) | 0.418 |
| UniProt P50456 (peptide sequence: LIDQLGPVSR, peptide start residue: 24) | 0.402 |
| UniProt P52045 (peptide sequence: VLGEAHTMNSDEFER, peptide start residue: 215) | -0.0782 |
| UniProt P42590 (peptide sequence: HIEATPASNVD, peptide start residue: 467) | 0.0519 |
| UniProt P55138 (peptide sequence: AQDLSPEDLLNKK, peptide start residue: 291) | -0.326 |

From the supplement of paper PMC12819154, “High-throughput peptide-centric local stability assay extends protein–ligand identification to membrane proteins, tissues and bacteria” (Nature Structural & Molecular Biology, 2025)
